Reference: PubChem BioAssay AID1224826 (NIAID, 2016)
This is one part, drawn at random, of about 17,000 reagents. About 1,110 of all reagents (6.6%) count as active. 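Active means lowered or raised reporter signal; replicate intensities are raw and not normalised per plate.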 A number with no mark means an inactive call. Further read-outs or replicates are left out here. Reagent sequences are not shown.

Aim: 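Genes that change LPS-induced Tnf promoter activity in mouse macrophages when knocked down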 (primary screen)
Cell system: RAW264.7 G9 macrophages from mouse bearing reporters for p65 (GFP) and the Tnf promoter (mCherry)
Knock-down reagent: siRNA pool against mouse genes, 100 nM
Time to read-out: 16 h of LPS stimulation, after 2 days of siRNA transfection
Challenge: bacterial lipopolysaccharide (Salmonella minnesota R595), 10 ng/ml
Measurement: 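Nuclear mCherry signal of the Tnf promoter reporter measured by imaging after background removal, scaled to each plate median and turned into robust z-scores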
Direction: Tnf reporter robust z-score: higher = stronger Tnf promoter reporter signal after LPS
Active means: 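Called active when robust z-score is at most -1.3, matching the median of the Tlr4 knock-down control, or over 3; control wells and wells with under 50 cells never active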
Meaning of the calls: active = Tnf reporter clearly lowered or raised; inactive = no clear change in Tnf reporter

The first 5 entries, to show the layout:
| Gene | Tnf reporter robust z-score | fewer than 50 cells in well |
| --- | --- | --- |
| Ccdc198 | -0.02 | enough cells in well |
| Or6f1 | -1.34 (active) | enough cells in well |
| Nol4 | -0.58 | enough cells in well |
| Popdc3 | 0.67 | enough cells in well |
| Or7d9 | -0.91 | enough cells in well |

The list itself, from the start:
| Gene | Tnf reporter robust z-score | fewer than 50 cells in well |
| --- | --- | --- |
| Ccdc198 | -0.02 | enough cells in well |
| Or6f1 | -1.34 (active) | enough cells in well |
| Nol4 | -0.58 | enough cells in well |
| Popdc3 | 0.67 | enough cells in well |
| Or7d9 | -0.91 | enough cells in well |
| Tars1 | – | fewer than 50 cells per well; well left out of calls |
| Gpn3 | 0.45 | enough cells in well |
| Taf6 | 1.73 | enough cells in well |
| Psg19 | – | fewer than 50 cells per well; well left out of calls |
| Ndufb11b | -1.58 (active) | enough cells in well |
| Clk4 | -0.5 | enough cells in well |
| 1810018F18Rik | -0.27 | enough cells in well |
| Slc25a41 | – | fewer than 50 cells per well; well left out of calls |
| Galnt6 | -1.54 (active) | enough cells in well |
| Cep55 | 1.59 | enough cells in well |
| Lipi | -0.13 | enough cells in well |
| Kcnn2 | 1.86 | enough cells in well |
| Fam20b | -0.34 | enough cells in well |
| Or4x15 | -0.59 | enough cells in well |
| Mmachc | – | fewer than 50 cells per well; well left out of calls |
| Pabpc4 | – | fewer than 50 cells per well; well left out of calls |
| Dll4 | 0.83 | enough cells in well |
| Casr | -0.47 | enough cells in well |
| Inpp5a | 0.1 | enough cells in well |
| Slc25a35 | -1.06 | enough cells in well |
| Lrrc28 | -1.23 | enough cells in well |
| Mtcl3 | 0.56 | enough cells in well |
| Rims1 | 1.53 | enough cells in well |
| Dpysl2 | -0.67 | enough cells in well |
| B4galt6 | 0.29 | enough cells in well |
| Gas6 | 2.16 | enough cells in well |
| Tfe3 | 0.3 | enough cells in well |
| Csgalnact2 | 2.67 | enough cells in well |
| Rora | -0.94 | enough cells in well |
| Padi2 | – | fewer than 50 cells per well; well left out of calls |
| Sigmar1 | -0.39 | enough cells in well |
| Myh10 | -1.2 | enough cells in well |
| Pik3c3 | 1.13 | enough cells in well |
| Dner | 0.33 | enough cells in well |
| Ddx4 | 0.04 | enough cells in well |
| Papss1 | 1.94 | enough cells in well |
| Adh4 | -0.97 | enough cells in well |
| Mrps9 | -0.26 | enough cells in well |
| Dhx40 | -0.12 | enough cells in well |
| Rpn1 | -1.36 (active) | enough cells in well |
| Vmn1r193 | 1.99 | enough cells in well |
| Ttll8 | 2.16 | enough cells in well |
| Ephb3 | -0.66 | enough cells in well |
| Gstm4 | -0.91 | enough cells in well |
| Ppp1r42 | 2.6 | enough cells in well |
| Tcstv1a | 0.25 | enough cells in well |
| Comt | 1.19 | enough cells in well |
| Iws1 | 5.12 (active) | enough cells in well |
| Smad1 | -0.55 | enough cells in well |
| Fscn3 | 0.93 | enough cells in well |
| Tat | 1 | enough cells in well |
| Tmem63b | -0.54 | enough cells in well |
| Cd177 | 0.33 | enough cells in well |
